Test results taken from publication PMC9705435 (Nature Communications, 2022).
Strings that start with PEPTIDE1 are HELM notation: dots part the residues, brackets hold end groups and non-standard residues. Numbered stars: 1 amine (or outer) side, 2 acyl side, 3 side chain; on linkers, the order of the positions; unused ones are H or OH. Square brackets hold non-standard residues; d marks the D form. Ends that are not written are not given here. azaPhe = O=C(N(Cc1ccccc1)N[*:1])[*:2]; azaPro = O=C(N1CCCN1[*:1])[*:2]; azaGly = NNC(=O)O

How the values were obtained:
[1] = general procedure: Fmoc solid-phase peptide synthesis; Rink amide; arginine-pre-loaded Wang resin; TBACl / TCCA activation of S-ethyl thiocarbazates in DCM
[2] = peptide made by a vendor (Fmoc solid-phase peptide synthesis; Rink amide; arginine-pre-loaded Wang resin; TBACl / TCCA activation of S-ethyl thiocarbazates in DCM); settings: whole synthesis, 215 nm
[3] = general procedure: Fmoc solid-phase peptide synthesis; Rink amide; TBACl / TCCA activation of S-ethyl thiocarbazates in DCM; settings: whole synthesis, HPLC (254 nm, 215 nm), scale 0.4 mmol
[4] = late stage modification step, 215 nm
[5] = whole synthesis, HPLC (254 nm, 215 nm), scale 0.1 mmol

Substance | step yield ([1]; late stage modification step) [%] | final HPLC purity [1, 4] [%] | crude HPLC purity ([1]; whole synthesis, 254 nm) [%] | isolated yield ([1]; whole synthesis) [%] | crude HPLC purity ([1]; whole synthesis, 215 nm) [%] | final HPLC purity ([1]; whole synthesis, 215 nm) [%] | crude purity (method not given) [1, 5] | also measured
PEPTIDE1{F.S.S.[azE].[am]}$$$$V2.0 | 46.0 | 97.8 | 93.0 |  |  |  |  | 
PEPTIDE1{[azF].S.S.Q}$$$$V2.0 | 29.5 | 95.8 | 71.0 |  |  |  |  | 
PEPTIDE1{F.S.S.[azQ].[am]}$$$$V2.0 | 39.0 | 97.9 | 50.2 |  |  |  |  | 
PEPTIDE1{R.P.P.G.F.S.P.F.[azR]}$$$$V2.0 |  |  |  | 5.40 | 19.2 | 95.9 | 19.2% | 
PEPTIDE1{[azR].P.P.G.F.S.P.F.R}$$$$V2.0 |  |  |  |  | 85.0 |  |  | difficulty met ([1]; whole synthesis): found to be unstable after deprotection and purification; crude HPLC purity [1, 5]: 85.7% crude purity
PEPTIDE1{R.P.P.G.F.S.[azP].F.R}$$$$V2.0 |  |  |  | 23.6 | 49.6 | 95.0 | 49.6% crude purity | 
H-RPPG[azaPhe]SPFR-OH (N-terminus and C-terminus assumed; SMILES N=C(N)NCCC[C@H](NC(=O)[C@H](Cc1ccccc1)NC(=O)[C@@H]1CCCN1C(=O)[C@H](CO)NC(=O)N(Cc1ccccc1)NC(=O)CNC(=O)[C@@H]1CCCN1C(=O)[C@@H]1CCCN1C(=O)[C@@H](N)CCCNC(=N)N)C(=O)O) |  |  |  | 16.5 | 66.0 | 95.3 | 66% crude purity | 
PEPTIDE1{F.S.S.E.[am]}$$$$V2.0 |  |  |  |  |  |  |  | final HPLC purity [2]: 95.9%
H-RPPG[azaPhe]SP[azaPhe]R-OH (N-terminus and C-terminus assumed; SMILES N=C(N)NCCC[C@H](NC(=O)N(Cc1ccccc1)NC(=O)[C@@H]1CCCN1C(=O)[C@H](CO)NC(=O)N(Cc1ccccc1)NC(=O)CNC(=O)[C@@H]1CCCN1C(=O)[C@@H]1CCCN1C(=O)[C@@H](N)CCCNC(=N)N)C(=O)O) |  |  |  | 17.7 | 66.0 | 95.3 | 66% | 
PEPTIDE1{[azF].S.S.[azE].[am]}$$$$V2.0 | 20.6 | 97.9 | 67.0 |  |  |  |  | 
PEPTIDE1{[azF].S.S.Q.[am]}$$$$V2.0 | 47.0 | 96.4 | 82.0 |  |  |  |  | 
PEPTIDE1{[azF].S.S.[azQ].[am]}$$$$V2.0 | 53.0 | 96.8 | 41.0 |  |  |  |  | crude purity (method not given) [3]: 41% crude purity
R[azaPro]PGFSP[azaPhe]R |  |  |  | 21.0 | 42.8 | 98.5 | 42.8% | 
PEPTIDE1{[azF].S.S.E.[am]}$$$$V2.0 | 29.5 | 96.4 | 76.0 |  |  |  |  | 
H-RPP[azaGly]FSPFR-OH (N-terminus and C-terminus assumed; SMILES N=C(N)NCCC[C@H](NC(=O)[C@H](Cc1ccccc1)NC(=O)[C@@H]1CCCN1C(=O)[C@H](CO)NC(=O)[C@H](Cc1ccccc1)NC(=O)NNC(=O)[C@@H]1CCCN1C(=O)[C@@H]1CCCN1C(=O)[C@@H](N)CCCNC(=N)N)C(=O)O) |  |  |  | 17.7 | 34.0 | 97.6 | 34% crude purity | 
R[azaPro]PGFSPFR |  |  |  | 35.4 | 38.0 | 97.0 | 38% crude purity | 
RPPGFSPFR |  |  |  | 48.0 | 85.9 | 98.3 |  | 
RPPGFSP[azaPhe]R |  |  |  | 14.0 | 68.4 | 97.6 |  | crude purity (method not given) ([1]; whole synthesis, HPLC (254 nm, 215 nm)): 68.4%
PEPTIDE1{[azF].S.S.E}$$$$V2.0 | 63.0 | 98.0 | 90.2 |  |  |  |  | 
